According to PMC9024441:
Construct, isoform or probe ends are uncertain for at least one entry.

System: ClPIF3 (Citrullus lanatus)
Experiment: EMSA
Settings: Chemiluminescent EMSA Kit (Beyotime GS009); pH and temperature not stated; unlabeled competitor at 100-fold; recombinant protein; protein details: GST (N-terminal, pGEX-6P-1); label: biotin

AACATAGAAACGTGGAAATCAA (double strand) [ClPSY1 promoter G-box probe (G-box-B)]
binding result: binds
